Measurements from PubChem BioAssay AID2685 (National Center for Advancing Translational Sciences (NCATS), 2010).
Several values for one entry are separate records, joined by “and”; a condition that tells them apart may be missing. Equal values may be shown once. Some of the results follow. The main result of the screen is listed elsewhere. These columns were measured beside it and carry no call. The list favours compounds with an active or inconclusive main result. The note in brackets gives the kind of curve behind each potency; many fits are weak.

Test: qHTS Assay for Lipid Storage Modulators in Drosophila S3 Cells;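 as to cell number change: cells counted by Cell Tracker Red CMTPX staining in the red channel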
Details: BODIPY lipid droplet fluorescence, 18-24 h; for cell number change: measured here: cell count max response, cells fed with added oleic acid
Procedure, shortened: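 Drosophila S3 cells loaded with oleic acid (400 uM, as added) and compounds at several concentrations; lipid droplets imaged by 488-nm laser-scanning cytometry, 500–530 nm intensity and object ratio to cell channel. Percent activity normalized to 20 uM Triacsin C.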

[1] = measured here: cell number channel AC50, cells fed with added oleic acid
[2] = measured here: lipid fluorescence (Fed channel) AC50, cells fed with added oleic acid

Row | Structure (SMILES) | cell number change | AC50 [1] | AC50 [2]
1 | C[n+]1cc[nH]c1SCC(=O)c1ccccc1 | -37.7% | 29.1 µM [falling, single point] | 
2 | CCOC(=O)c1c(NC(=O)C2=C(C)NC(=S)NC2c2ccccc2C(F)(F)F)sc(C)c1C (centres undefined) | 1.8% |  | 6.51 µM [rising, single point]
3 | CNC(=O)CSc1nnnn1-c1ccc(C)cc1C |  | 5.8 µM [rising, single point] | 
4 | FC(F)(F)c1ccc(CSc2nccn2-c2ccccc2)cc1 | -29.1% |  | 2.06 µM [falling, partial curve]
5 | CC(=O)Nc1ccc(C(=O)COC(=O)C2CC3CCCC(C2)C3=O)cc1 (centres undefined) | -84.5% | 18.4 µM [falling, single point] | 
6 | Cc1nc2ccc(Br)cn2c1C(=O)N/N=C\c1ccccc1Cl | 11.3% |  | 
7 | COC(=O)c1cccc(C23CC4(C2)[C@H](CN(Cc2ccc(C(F)(F)F)cc2)[C@@H]4c2ccccc2)C3c2ccccc2)c1 (some centres undefined) | -54.9% | 9.2 µM [falling, partial curve] | 14.6 µM [falling, partial curve]
8 | Cc1cccc(C(=O)NC(=S)NNC(=O)COc2c(C)cccc2C)c1 | 25.4% |  | 18.4 µM [rising, single point]
9 | CSc1ccccc1NC(=O)CN(C)CC(=O)NCC(=O)Nc1ccc(F)cc1 | 5.26% |  | 0.206 µM [falling, full curve, poor fit]
10 | Cc1ccc(C)c(Cn2c(CO)nc3ccccc32)c1 |  |  | 0.146 µM [rising, full curve, poor fit]
11 | COc1ccc(CCNC(=O)Cn2ccc3cc(S(=O)(=O)N4CCCC4)ccc32)cc1OC | -3.36% |  | 1.84 µM [rising, single point]
12 | CN(c1ccccc1)S(=O)(=O)c1nnc(NC(=O)COc2ccccc2)s1 | 11.6% |  | 5.17 µM [falling, single point]
13 | COc1cccc(C2=CC(=O)C[C@H](c3ccc(Cl)cc3)C2)c1OC | -12.9% |  | 
14 | CC1(C)S[C@@H]2[C@H](NC(=O)Cc3ccccc3)C(=O)N2[C@H]1C(=O)O | 5.56% and -15.1% | 4.61 µM [rising, single point] and 820 nM [falling, full curve, poor fit] | 
15 | CCS(=O)(=O)Nc1ccc(C2=NN(C(=O)c3ccco3)C(c3cccs3)C2)cc1 (centres undefined) | -6.12% | 1.64 µM [rising, partial curve] | 4.61 µM [rising, single point]
16 | CC(C)CC(=O)NC(=S)Nc1sc2c(c1C(N)=O)CCC2 | 77.1% | 4.61 µM [falling, single point] | 29.1 µM [rising, single point]
17 | Cc1ccc2nc(N(CCCN(C)C)C(=O)CN3C(=O)c4ccccc4C3=O)sc2c1 |  |  | 1.46 µM [rising, full curve]
18 | Cc1ccccc1-c1cccc(CN2CCN(C)C(CCO)C2)c1 (centres undefined) | 2.64% |  | 

Row | Structure (SMILES) | cell number change | AC50 [1] | AC50 [2]
19 | COc1ccc(-c2cn3cccnc3n2)cc1NC(=O)C(C)Oc1ccccc1 (centres undefined) | -21.8% |  | 
20 | COc1ccccc1-c1cc(C(=O)O)c2c(=O)n(C)c(=O)n(Cc3ccccc3)c2n1 | 23.9% |  | 0.146 µM [rising, full curve, poor fit]
21 | CCN1CCN(CC(O)COCc2cc(OC)c(OC)c(OC)c2)CC1 (centres undefined) | -46% | 14.6 µM [falling, partial curve] | 13 µM [falling, partial curve]
22 | COc1cccc(NC(=O)CN(C)C(=O)CNC(=O)c2ccccc2F)c1 | -1.39% | 1.03 µM [rising, full curve] | 
23 | COc1cccc(/C=N/NC(=O)c2ccc(CN3c4cccc5cccc(c45)S3(=O)=O)cc2)c1 | -16.7% | 0.517 µM [rising, single point] | 0.092 µM [rising, full curve, poor fit]
24 | Cc1ccc(C(=O)N(Cc2cccs2)C2CCS(=O)(=O)C2)cc1 (centres undefined) |  |  | 1.64 µM [falling, partial curve, poor fit]
25 | O=C(Nc1ncc2c(n1)-c1ccccc1CC2)c1ccccc1 |  | 0.731 µM [rising, single point] | 25.9 µM [rising, single point]
26 | Cc1ccc(-n2ncc3c(=O)n(CC(=O)N(C)C)cnc32)cc1C | -4.5% |  | 0.116 µM [rising, partial curve, poor fit]
27 | O=C(c1ccc(S(=O)(=O)N2CCOCC2)cc1)N(c1ccc(F)cc1)C1C=CS(=O)(=O)C1 (centres undefined) | 2.5% | 1.16 µM [falling, full curve] | 11.6 µM [falling, partial curve]
28 | O=C(NNC(=O)c1cc(OCC(F)(F)F)ccc1OCC(F)(F)F)c1cccc(C(F)(F)F)c1 | 47.7% |  | 5.8 µM [falling, single point]
29 | Cc1cc(C)nc(SCc2nnc(SCC(=O)Nc3ccc(C)c(C)c3)o2)n1 | 17.9% |  | 23.1 µM [rising, single point]
30 | COc1ccc(O)c(/C=C(\C#N)C(=O)Nc2ccccn2)c1 | -8.33% |  | 0.13 µM [falling, full curve, poor fit]
31 | CCOC(=O)[C@@H]1[C@H]2COc3ccccc3[C@H]2N2C(=O)N(c3ccc(OC)cc3)C(=O)[C@]12C | 0.299% |  | 29.1 µM [falling, single point]
32 | O=C(CCNC(=O)c1ccco1)Nc1ccccc1 | -6.67% |  | 
33 | O=C(CCN1CCN(C/C=C/c2ccccc2)CC1)Nc1ccccc1Cl |  | 5.17 µM [rising, partial curve] | 
34 | O=C(O)COc1ccccc1C1C2C(=O)N(c3ccc(F)cc3)C(=O)C2ON1c1ccccc1 (centres undefined) | -18.7% |  | 7.31 µM [falling, partial curve]
35 | CC1(C)Oc2ccc3ccc(=O)oc3c2C[C@H]1O | -32.4% | 25.9 µM [falling, partial curve] | 14.6 µM [falling, partial curve, poor fit]
36 | Fc1cccc(C2NC(=S)NC3=C2N2CCC3CC2)c1 (centres undefined) | -6.83% | 2.31 µM [rising, single point] | 

An excerpt from above, reduced to AC50 [2] and cell number change.
Row,Structure (SMILES),AC50 [2],cell number change
28,O=C(NNC(=O)c1cc(OCC(F)(F)F)ccc1OCC(F)(F)F)c1cccc(C(F)(F)F)c1,"5.8 µM [falling, single point]",47.7%
36,Fc1cccc(C2NC(=S)NC3=C2N2CCC3CC2)c1 (centres undefined),,-6.83%
